The values below come from PubChem BioAssay AID1347423 (Functional Genomics Laboratory (NCATS/FGL), 2020).

Out of some 52,000 sequences screened, about 210 (0.4%) were called active.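 Rule for the calls: active = gene whose silencing raises cell survival under the drug, median off-target-corrected z-score across its silencing RNAs 2 or more; inactive = the rest.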 The list shows a part of the results.

The nature of this test: Resistance to Poly (ADP-Ribose) Polymerase inhibitor: Gene Identification via Genome-wide siRNA Screen. The settings on record: mouse BRCA2 R2336H ES cells, olaparib, CellTiter-Glo viability; hits give high values. In short, it runs like this: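 Mouse BRCA2 R2336H ES cells were reverse-transfected with siRNA (20 nM final), treated at 48 h with 500 nM olaparib, and read by CellTiter-Glo after 72 h. Scores: MAD-based z per siRNA, median per gene, seed off-target correction.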
A general note: Cellular ATP, detected with luciferase, serves as a proxy for viable cell number.
Regarding GCUCUCUAUAGGAUAAUGGTT against LOC328644, the z-score is inactive: 2.39.

For the sequence “GGAUCUUGAAGAUAAGAGCTT against 1810009A15Rik”, the z-score was inactive: 0.832. With “GAGUGUGGAAGGAAGAGGUTT against D730049H07Rik”, the z-score was inactive: 0.621. For “GGUGUCAAGAAGAAUGUCCTT against 2410080H04Rik” the value was inactive: -0.957; for CCCUAGAGAUGGUGGGUCUTT against Olfr934, inactive: -0.47. The figure for “GGGUCUUUCUAAAAAGUUCTT against D930046M03” is inactive: 0.527; for “CGUAAACUUAGGAAUUUUCTT against E230015L20Rik” it is inactive: 1.58; for GGAGCUGAUAAGAAAACUATT against Gbp2 it is inactive: -0.474.

In the case of GGUGAUUCAGAUAAAAGAGTT against Mbtps1, the z-score was inactive: 0.064. As for GGCUCAAAGACUGAAUCCCTT against Recql4, the z-score was inactive: 1.49.

Consider CCCACAAUCUUUUUGUAAATT against Sost, for which the z-score is inactive: 1.15. The figure for “GGAAGUGGCCUUAAAGUAUTT against 4933429F08Rik” is inactive: -0.872. For “GCACCAUUCUAGGAGUCAUTT against 1300002A08Rik” the value was inactive: -0.0419; for GGCCUUAGAUGGGAAAUUGTT against Pttg1, inactive: 0.0255.

In the case of “GGAUGUAAAAUCCAUUGUUTT against 1700030B17Rik”, the z-score is inactive: -2.51.

On to GCUGUUUCAGGUAUCUGUCTT against Tcam1, for which the z-score was inactive: -1.25. On to GGGACUUCAGACAGUUAUCTT against Es2el, for which the z-score is inactive: 1.6.

For the sequence GGUAUUAGCGGAUUGUUACTT against Spg7, the z-score was inactive: 1.09. For GCAAUGUUAUUUUCACCAGTT against Slc3a1 the value was inactive: 2.14. With GGUGCCAACUUUAAAAGCUTT against Zfp161, the z-score is inactive: -0.136.

CGGGUCUAUCGAUUUCUUCTT against Fcna: the z-score is inactive: 0.611.

In the case of GCUAUUGGCGAGAAUUAAATT against Smarca1, the z-score was inactive: 1.58. For “GCCAUUUGUCCACAAAAUGTT against 2210023G05Rik” the value was inactive: -0.552; for GGAAGUUAUCAACAUAGUUTT against Ern1, inactive: -0.237; for GCGUAGAGACAAAGUAGAATT against Gpr141, inactive: 2.86. For GGUGUCAUUCAACUUGCAUTT against Rnase10 the value was inactive: 0.422; for CGGAAUAUAGAAUGAAACCTT against Cd200r3, inactive: -0.737. For GGAAACUUUUGGAAGACUATT against Ptdsr the value was inactive: 1.59; for “GGAUUUUGUCGGCAAGGCCTT against 2310035K24Rik”, inactive: 0.982; for CCUUAUGGAUUUAGCAUCATT against Lamb3, inactive: 0.918.

For GGAACAGCAUGCUUACAUUTT against Ugt1a9, the z-score is inactive: -0.956. For GGGCAUGUAUAUAAUGUUCTT against Kifc3 the value was inactive: -0.221; for “GCUGAAGUGUGUCACACGUTT against 2410001C21Rik”, inactive: 0.0492; for “GGAUGUGUACAAUCGUACCTT against C730027E14Rik”, inactive: 0.154.

For “UCCCUAUCACUUGAGUUUUTT against 4921509E05Rik”, the z-score was inactive: 0.0896. Regarding GCAAGACUAAGACUAUCUCTT against Olfr1340, the z-score was inactive: 0.576. The figure for GCCUAGUGAAUACAUCACUTT against Cyp4f18 is inactive: -0.383.

Turning to CCAGUUCCUUUGUAGGCAATT against Ctf1, the z-score was inactive: -2.36. The figure for GGCUUCCAUUACCAUGAUGTT against Olfr381 is inactive: 1.93. The figure for CCUAUGAAUGAUUUUGGUGTT against Pcdhb7 is inactive: 0.169. The figure for “CCGAUCCAAUGCACCAAACTT against 2310008M10Rik” is inactive: 0.396; for GGUGGACUUCAUGUAGAUUTT against Ga17 it is inactive: -1.45.

Regarding GGAGACAUUGCUAUAUAUGTT against Hmgcs1, the z-score was inactive: -0.697. With “GGAAAACAUUGAAACAGUGTT against 2700038L12Rik”, the z-score is inactive: -0.348. The figure for GGAGUCCAAAUUCUUGGGUTT against Ik is inactive: -1; for “CCAACAGAACGACUGUGGGTT against D18Ertd653e” it is inactive: -1.02. Consider GGGACUUAAUUUAUAGGGATT against Tagln2, for which the z-score was inactive: -0.129.

With “GGGAGCUAGAUCUUUCAUCTT against A930016D02Rik”, the z-score is inactive: -0.974. Regarding GGGUUUCUGAGGUUUAAUUTT against Arhgef3, the z-score was inactive: -0.000353.

Consider CCAGAGCUUAUUGAGAUGCTT against Myh4, for which the z-score was inactive: -0.0538.

For the sequence “CCGAUUGAAAUAUGAAUCCTT against C330016O16Rik”, the z-score is inactive: 0.682.

For GCACCAAUCAAUGAGGAGATT against Was, the z-score was inactive: -0.678.

As to CCUCUCCAUCUUUGACUUATT against Olfr961, the z-score is inactive: -1.29.

With GGAUUUAAGUCAAAUCUCUTT against BC053073, the z-score is inactive: 1.21. For CCUAUGAUUACUUGAACCCTT against Bak1 the value was inactive: 0.416. As to CGGCCAUAUAAUUUUGAAUTT against Tbx20, the z-score was inactive: -0.0257. The figure for GGUUUCGAUAGGAAUAUGATT against Pkp1 is inactive: 0.93; for “GGAAAACAUAUUUCAGCAGTT against C130032F08Rik” it is inactive: 1.22; for GCUGUUUUCUUUCCAUUUCTT against Olfr981 it is inactive: -0.116.

Turning to GGAGAAGUUACUGAUGAGATT against D11Lgp1e, the z-score was inactive: -0.176. The figure for GGUGGAAGAAGAAAUUGUCTT against Tpd52l2 is inactive: -0.594; for CCCUGUAUAUUGCAUUUCCTT against Pcdhb21 it is inactive: 0.769; for GCCUUCUUAACUUCAUCACTT against Taar5 it is inactive: 0.741. The figure for GGAGCAAAGCCUGUGAACUTT against Dffa is inactive: 0.856; for CCUCUUACCGCUUUCAAUATT against Arf1 it is inactive: 0.105; for GCCUCCUAUAUAAACAUUGTT against Olfr1321 it is inactive: -0.983.

Turning to GGUGGCUAUUGAUGAAAACTT against Zfyve19, the z-score was inactive: 0.893. “GCCUAACAUCUGUCCCUAUTT against D15Ertd405e”: the z-score was inactive: 1.67.

CCUGAAGCGGAAGUGCAAATT against Wnt10b: the z-score is inactive: 1.17. For CCUUGUGACUCUAAGAAUATT against Bcl2l14 the value was inactive: 0.0613; for GGUUUAGCAUCGUCCUAUATT against Crmp1, inactive: -1.2.

Regarding “GGGUGCUAUUCUCCUUUUUTT against 9830134C10Rik”, the z-score is inactive: -0.59. The figure for GGGUAAUACUCUUUGGUGCTT against Olfr594 is inactive: 0.166; for GGAAAAAGAUCCAGAUUUGTT against Adprh it is inactive: 0.964; for GCUUCAGGCAAGGUUUAAATT against Ppp1r2 it is inactive: 0.218. For “CCCAUCCAAUAAGCAAUUGTT against A330042H22”, the z-score is inactive: 0.287. For GCUAGGACAUUCAUUCAACTT against Gm1805 the value was inactive: 0.842.

Turning to “CCCAGACAGAUUAUGUAUCTT against E330040A16Rik”, the z-score is inactive: -0.451. GGGUUCAAUGCAGUCAUGATT against Slc25a20: the z-score was inactive: -1.28. For GCUUUGUUAGUGUUAGUCUTT against Lamc1 the value was inactive: 0.771.

With GGAAGACUCGGUUCAUCAUTT against Pnliprp1, the z-score is inactive: 1.14. The figure for CCUCAUCGACAUAAUGAUUTT against Samhd1 is inactive: -1.42; for GCUCUCAUGACUCCUUUUATT against Olfr99 it is inactive: -0.694. Take GGUGGAUUAAGUCUCAAAATT against Pcdhb22: the z-score is inactive: 2.75. With GCACAAGUCCCUACCACUUTT against Birc3, the z-score is inactive: -0.329. The figure for GGGAAGAAGCUAAAGAAGATT against Waspip is inactive: -0.419. The figure for CGUGGUAGUUAAUUGUUCATT against Map3k1 is inactive: -0.958. For CCGUUUUCGCUUUGAGAAATT against Smarcad1 the value was inactive: -0.273; for GGCCAAUGACCAGACCUUGTT against Hrh1, inactive: 1.47; for GCUAGAGGAACUAGAACCATT against Mrpl54, inactive: -1.56. For “GAGUGUGAGGACUCAGACUTT against 5330440M15Rik”, the z-score is inactive: -2.4.

GGAAAGUGAAAGUUAGUUUTT against Cbx6: the z-score was inactive: 0.431. With GCACCAUGUAUACAAAAGATT against Pcdhb3, the z-score was inactive: 1.24.

As to AGAUCGUGGACCAUGUGAATT against Nxph4, the z-score is inactive: 0.524. For GCUUGAUGACUCUAAACCUTT against Runx2 the value was inactive: 0.119; for GGCCCGAAACAAGAAAUCCTT against Ikbke, inactive: 0.255. The figure for GGUUUUGUAGGCAUGCUUGTT against Slc10a3 is inactive: 0.352; for GGGCACAAGUACCAUCUUATT against Lxn it is inactive: 0.152; for “GGAGAAUGUGUUGGUCAUUTT against C230090D14” it is inactive: -0.298. The figure for “GGAGCAUCUCAAACCUUCATT against 6030463G20Rik” is inactive: -0.814; for GGGAAAAGUGGGAGAUUUUTT against Rpn1 it is inactive: -0.688.

As to GGAUGAACAUUAAACUUCGTT against Ctsb, the z-score is inactive: 0.46. The figure for CCAUUCUGUGAUUACUGAGTT against Olfr787 is inactive: 0.177.
